Measured values: PMC9958362
These are yes or no findings as the source states them, for the method shown. Binding seen in cells or lysates may run through a third protein. Here binding means that the protein was enriched with, or labelled near, the bait; the list need not be complete.

Chains of the proteins cited; added tags and fusions are not shown.
UniProt Q14244: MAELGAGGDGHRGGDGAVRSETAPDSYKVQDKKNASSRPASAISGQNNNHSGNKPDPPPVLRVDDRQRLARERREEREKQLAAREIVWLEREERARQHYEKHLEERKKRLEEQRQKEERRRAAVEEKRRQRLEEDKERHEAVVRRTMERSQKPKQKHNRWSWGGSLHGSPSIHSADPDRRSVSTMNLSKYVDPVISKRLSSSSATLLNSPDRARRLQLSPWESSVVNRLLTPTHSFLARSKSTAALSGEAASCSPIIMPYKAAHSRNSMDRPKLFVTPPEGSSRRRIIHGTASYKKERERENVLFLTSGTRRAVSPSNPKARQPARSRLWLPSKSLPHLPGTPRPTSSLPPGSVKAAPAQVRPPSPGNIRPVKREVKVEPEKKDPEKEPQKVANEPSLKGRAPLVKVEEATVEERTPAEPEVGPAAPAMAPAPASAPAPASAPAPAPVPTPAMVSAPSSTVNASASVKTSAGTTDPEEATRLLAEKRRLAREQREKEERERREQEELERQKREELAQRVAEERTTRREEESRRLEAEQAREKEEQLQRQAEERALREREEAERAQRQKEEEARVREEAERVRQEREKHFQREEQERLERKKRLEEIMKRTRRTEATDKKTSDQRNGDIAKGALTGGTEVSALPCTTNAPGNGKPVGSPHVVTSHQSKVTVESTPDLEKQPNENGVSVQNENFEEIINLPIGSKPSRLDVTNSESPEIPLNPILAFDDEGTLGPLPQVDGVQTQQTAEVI

What was measured:
[1] = biological target: T1, pRAD50 peptide (phosphorylated RAD50 peptide, pThr690); experiment: affinity purification with mass spectrometry; biotinylated 20 aa peptides (phosphorylated or non-phosphorylated) coupled to streptavidin beads; pull-down from HeLa nuclear extract; quantitative proteomics; only the target purified
T1 sequence (peptide, Biotin-eahx on the N-terminus; phosphothreonine (pT, Thr690); C-terminal amide): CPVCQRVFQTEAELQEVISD

[2] = biological target: T2, pMLH1 peptide (phosphorylated MLH1 peptide, pSer477); experiment: as above
T2 sequence (peptide, Biotin-eahx on the N-terminus; phosphoserine (pS, Ser477); C-terminal amide): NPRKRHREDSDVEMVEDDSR

Q: With “MAP7 (endogenous, HeLa nuclear extract) (from UniProt Q14244 1-749)” as the substance, how does the binding [1] read?
A: binds

Q: And the binding [2]?
A: binds
